The subject of one data set is T1, AlpA (Cg1891).
T1 sequence (looked up, limits assumed): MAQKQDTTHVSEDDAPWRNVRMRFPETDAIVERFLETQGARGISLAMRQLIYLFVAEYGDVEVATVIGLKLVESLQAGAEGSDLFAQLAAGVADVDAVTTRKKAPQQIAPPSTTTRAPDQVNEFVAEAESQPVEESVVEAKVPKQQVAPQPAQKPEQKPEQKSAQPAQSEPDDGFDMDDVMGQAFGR
As to the kind of experiment: EMSA. As to conditions: EMSA: 20 mM Tris/HCl pH 7.5, 50 mM KCl, 10 mM MgCl2, 5% glycerol, 0.5 mM EDTA, 0.005% Triton X-100, 100 ng DNA, 20 min, temperature not stated, native 10% PAGE, recombinant protein, protein details: N-terminal His10 (pET-TEV), probe letters rebuilt from the primers and the genome.

For data set [1], the system named is AlpA (Cg1891) + AlpC (Cg1890). Nature of the data set: EMSA supershift. As to conditions: ATP, AlpA 200-fold, AlpC 30-fold molar excess; EMSA: 20 mM Tris/HCl pH 7.5, 50 mM KCl, 10 mM MgCl2, 5% glycerol, 0.5 mM EDTA, 0.005% Triton X-100; 100 ng DNA, 20 min, temperature not stated; native 10% PAGE; recombinant protein; protein details: N-terminal His10 (pET-TEV),His10 (pET16b); probe letters rebuilt from the primers and the genome.

Results on 3 sequences are retold here after PMC4446434, “A prophage-encoded actin-like protein required for efficient viral DNA replication in bacteria” (Nucleic Acids Research, 2015).

The exact form of at least one protein or probe is not confirmed. For some of these results: Negatives hold for the conditions tested. For some of these results: Tags and fusion partners may be left off the protein sequences shown.

“CTGGGGGCTAGAGCGCGCCAAAGAAAACACAGAGCAACCACCATTGCAGCAGTGCTGCAATGGTGGTTGTTTTTTTGGCACAGTCTCAGGCTGTGTTCGATGAGTGCAACATCAGCAGCAATCCCATTCGAGCAGTCAATGACCACGGGGACGAGCCCCGAGGTTTTCTCGCACATTATTCATAAAAAAAATTGCCAACCTGTGCTTAGATCAACCGCGAAAGAAAAGGAACACGGTAAAGCAACAGACTGGCAATCTTCCACACAGGTATTCGACGAGGGGTTTGGGGAACCAAGGGAACGAACATCTGCGAGATACTTAAGCTTGGGACGACACTCCCTCACTAGAGAACCTGTTACTAGTGTAACAAAGTTAAAACCAATACTCAATAAGATTCTCTAGTTTAAAATACCTAGTTCTTAGATGAAGTTTGAAACTTCATCTAAGAACTAGGTATTAATTACTTGCGTGCTTTCGCTGCAATCGAGCGTGCCGCAATCATAAGTCCTT (double strand) [alpC downstream region]”: the binding result with AlpA (Cg1891) (up to 500-fold molar excess AlpA) was “no binding”.
For the sequence “TGTCATGGTGGGGCTCCATTAGTTAACTATTAAATAGTTATTTAATCGACCGCTAGGGGTTTATTACCTGCCTGCTTAAGTGCACGTTAGGCGTGTTTTAAGGGCTTGTTAAAAGTGCCTTAAAAGGCAGATAACGGTCGATTATCGGTACATAGGGGATTGTGCTGTTAGTGGTTGTTTAAAAGCCCTTTAAGAAACGATTAATTGTTTTTTACGGGTTAATTATTAATTGACACATAAGTGCCTTTTAAAAGTACGTTAATTGCTTTTTAATTGTCTTTTAAAAGACACTTCTATGTTACTATTAAATTAGTCAATAACGTTAGTCATAAACAATGCAGTTATTGAAGAGAAACTTCCCGACACAATGTACGAAATGGGGGTCACACATGGCTCAAAAACAGGACACGACACATGTATCAGAGGACGATGCCCCGTGGCGTAATGTGCGTATGCGCTTCCCAGAAACAGACGCTATCGTTGAGCGGTTTTTGGAAACACA (double strand) [alpA upstream region (alpAC promoter, alpS)]”, the binding result with AlpA (Cg1891) (200- and 500-fold molar excess AlpA, smear) is “binds”; in data set [1] it was “binds”.
Consider “CACTTCCAAGGAAGATACACGCCCGAAGAAGCTCCGTTAATGGACGCTCTTCTATTAAGCCTTTTCTGATGGATACAAGCAGAGAATCAGTCATGCTAAATATCATAATCCATCAAACATTTGATCGGTGTCAATCAATGCGTTCTGGACTGAGGTGACCACCATGCAAGACGAGGTGGACCTAGTGATCACCAACCCGCCGTTTTCTCTGTTCCGTGAGTTCCTGAGTTGGCTATTACACGGTGACGTGTTGTTTTCTATCATCGGTAACGCGAACGTAATCACATATCTAGGTGCCTGAATCTAGATTAAAACTATAAACATTATTTAAAACCATTGCCTTATTGGAGCATGCTGCAAGCTTTTCGCGGTGGGCTTGCAACATCTTACATCAGAATGAATGATGTTAAACACCTAATAAGTTCAAGTAGTTAAAAGGAAATATCAACAATGTTACGAAAAGCATCTATCACGCTAATGATATCCGTTACGCTCTTAACAT (double strand) [cg2036 promoter control]”, for which the binding result in the data set with AlpA (Cg1891) (up to 500-fold molar excess AlpA, control named cg2036 in Methods/legend, cg2040 in Results) is listed as “no binding”.
